According to the supplement of paper PMC8728848:
The list shows a part of the results.

Key:
Assay in all cases: glycan array binding signal (z-score within array); higher = stronger binding
Conditions in all cases: glycan notation: IUPAC condensed, linker removed
[1] = biological target: Glc(b1-4)Glc
Procedure, shortened: (§1)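 Glycan array data were curated from 3228 arrays in the Consortium for Functional Glycomics database and kept only where the protein sequence was available. Glycan names were converted to IUPAC-condensed notation, and columns mapping to the same glycan were averaged. The binding signal is a within-array Z-score, averaged across arrays of the same protein sequence at different concentrations or buffers and across linkers. Negative Z-scores can be read as non-binding.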

[2] = biological target: Glc(b1-6)Glc
Procedure, shortened: as §1

[3] = biological target: GlcA(b1-3)Gal
Procedure, shortened: as §1

[4] = biological target: GlcA(b1-3)GlcNAc
Procedure, shortened: as §1

[5] = biological target: GlcA(b1-6)Gal
Procedure, shortened: as §1

[6] = biological target: GlcA3S(b1-3)Gal(b1-4)GlcNAc(b1-2)Man
Procedure, shortened: as §1

[7] = biological target: GlcA3S(b1-3)Gal(b1-4)GlcNAc(b1-3)Gal(b1-4)Glc
Procedure, shortened: as §1

[8] = biological target: GlcNAc(a1-3)Gal(b1-4)GlcNAc
Procedure, shortened: as §1

[9] = biological target: GlcNAc(a1-4)Gal(b1-3)GlcNAc
Procedure, shortened: as §1

[10] = biological target: GlcNAc(a1-4)Gal(b1-4)GalNAc
Procedure, shortened: as §1

[11] = biological target: GlcNAc(a1-4)Gal(b1-4)GlcNAc
Procedure, shortened: as §1

[12] = biological target: GlcNAc(a1-4)Gal(b1-4)GlcNAc(b1-3)Gal(b1-4)Glc
Procedure, shortened: as §1

[13] = biological target: GlcNAc(a1-4)Gal(b1-4)GlcNAc(b1-3)Gal(b1-4)GlcNAc
Procedure, shortened: as §1

[14] = biological target: GlcNAc(a1-4)Gal(b1-4)GlcNAc(b1-3)Gal(b1-4)GlcNAc(b1-3)Gal(b1-4)GlcNAc
Procedure, shortened: as §1

[15] = biological target: GlcNAc(a1-4)Gal(b1-4)GlcNAc(b1-3)Gal(b1-4)[Fuc(a1-3)]GlcNAc(b1-3)Gal(b1-4)[Fuc(a1-3)]GlcNAc
Procedure, shortened: as §1

[16] = biological target: GlcNAc(a1-6)Gal(b1-4)GlcNAc
Procedure, shortened: as §1

[17] = biological target: GlcNAc(b1-2)Gal(b1-3)GalNAc
Procedure, shortened: as §1

[18] = biological target: GlcNAc(b1-2)Man(a1-3)[GlcNAc(b1-2)Man(a1-6)]Man(b1-4)GlcNAc(b1-4)GlcNAc
Procedure, shortened: as §1

[19] = biological target: GlcNAc(b1-2)Man(a1-3)[GlcNAc(b1-2)Man(a1-6)]Man(b1-4)GlcNAc(b1-4)[Fuc(a1-6)]GlcNAc
Procedure, shortened: as §1

[20] = biological target: GlcNAc(b1-2)Man(a1-3)[GlcNAc(b1-4)][GlcNAc(b1-2)Man(a1-6)]Man(b1-4)GlcNAc(b1-4)GlcNAc
Procedure, shortened: as §1

[21] = biological target: GlcNAc(b1-2)Man(a1-3)[GlcNAc(b1-4)][GlcNAc(b1-2)Man(a1-6)]Man(b1-4)GlcNAc(b1-4)[Fuc(a1-6)]GlcNAc
Procedure, shortened: as §1

[22] = biological target: GlcNAc(b1-2)[GlcNAc(b1-4)]Man(a1-3)[GlcNAc(b1-2)Man(a1-6)]Man(b1-4)GlcNAc(b1-4)GlcNAc
Procedure, shortened: as §1

[23] = biological target: GlcNAc(b1-2)[GlcNAc(b1-4)]Man(a1-3)[GlcNAc(b1-4)][GlcNAc(b1-2)Man(a1-6)]Man(b1-4)GlcNAc(b1-4)GlcNAc
Procedure, shortened: as §1

[24] = biological target: GlcNAc(b1-2)[GlcNAc(b1-4)]Man(a1-3)[GlcNAc(b1-4)][GlcNAc(b1-2)[GlcNAc(b1-6)]Man(a1-6)]Man(b1-4)GlcNAc(b1-4)GlcNAc
Procedure, shortened: as §1

[25] = biological target: GlcNAc(b1-2)[GlcNAc(b1-4)]Man(a1-3)[GlcNAc(b1-4)][GlcNAc(b1-2)[GlcNAc(b1-6)]Man(a1-6)]Man(b1-4)GlcNAc(b1-4)[Fuc(a1-6)]GlcNAc
Procedure, shortened: as §1

[26] = biological target: GlcNAc(b1-2)[GlcNAc(b1-6)]Man(a1-6)[GlcNAc(b1-2)Man(a1-3)]Man(b1-4)GlcNAc(b1-4)GlcNAc
Procedure, shortened: as §1

[27] = biological target: GlcNAc(b1-2)[GlcNAc(b1-6)]Man(a1-6)[GlcNAc(b1-2)Man(a1-3)]Man(b1-4)GlcNAc(b1-4)[Fuc(a1-6)]GlcNAc
Procedure, shortened: as §1

[28] = biological target: GlcNAc(b1-2)[GlcNAc(b1-6)]Man(a1-6)[GlcNAc(b1-4)][GlcNAc(b1-2)Man(a1-3)]Man(b1-4)GlcNAc(b1-4)GlcNAc
Procedure, shortened: as §1

[29] = biological target: GlcNAc(b1-3)Fuc
Procedure, shortened: as §1

[30] = biological target: GlcNAc(b1-3)Gal
Procedure, shortened: as §1

[31] = biological target: GlcNAc(b1-3)Gal(b1-3)GalNAc
Procedure, shortened: as §1

[32] = biological target: GlcNAc(b1-3)Gal(b1-4)Glc
Procedure, shortened: as §1

[33] = biological target: GlcNAc(b1-3)Gal(b1-4)GlcNAc
Procedure, shortened: as §1

[34] = biological target: GlcNAc(b1-3)Gal(b1-4)GlcNAc(b1-2)Man(a1-3)[GlcNAc(b1-3)Gal(b1-4)GlcNAc(b1-2)Man(a1-6)]Man(b1-4)GlcNAc(b1-4)GlcNAc
Procedure, shortened: as §1

[35] = biological target: GlcNAc(b1-3)Gal(b1-4)GlcNAc(b1-2)Man(a1-3)[GlcNAc(b1-3)Gal(b1-4)GlcNAc(b1-2)Man(a1-6)]Man(b1-4)GlcNAc(b1-4)[Fuc(a1-6)]GlcNAc
Procedure, shortened: as §1

[36] = biological target: GlcNAc(b1-3)Gal(b1-4)GlcNAc(b1-2)[GlcNAc(b1-3)Gal(b1-4)GlcNAc(b1-6)]Man(a1-6)[GlcNAc(b1-3)Gal(b1-4)GlcNAc(b1-2)Man(a1-3)]Man(b1-4)GlcNAc(b1-4)GlcNAc
Procedure, shortened: as §1

[37] = biological target: GlcNAc(b1-3)Gal(b1-4)GlcNAc(b1-3)Gal(b1-4)GlcNAc
Procedure, shortened: as §1

[38] = biological target: GlcNAc(b1-3)Gal(b1-4)GlcNAc(b1-3)Gal(b1-4)GlcNAc(b1-2)Man(a1-3)[GlcNAc(b1-3)Gal(b1-4)GlcNAc(b1-3)Gal(b1-4)GlcNAc(b1-2)Man(a1-6)]Man(b1-4)GlcNAc(b1-4)GlcNAc
Procedure, shortened: as §1

[39] = biological target: GlcNAc(b1-3)Gal(b1-4)GlcNAc(b1-3)Gal(b1-4)GlcNAc(b1-2)Man(a1-3)[GlcNAc(b1-3)Gal(b1-4)GlcNAc(b1-3)Gal(b1-4)GlcNAc(b1-2)Man(a1-6)]Man(b1-4)GlcNAc(b1-4)[Fuc(a1-6)]GlcNAc
Procedure, shortened: as §1

[40] = biological target: GlcNAc(b1-3)Gal(b1-4)GlcNAc(b1-3)Gal(b1-4)GlcNAc(b1-2)[GlcNAc(b1-3)Gal(b1-4)GlcNAc(b1-3)Gal(b1-4)GlcNAc(b1-6)]Man(a1-6)[GlcNAc(b1-3)Gal(b1-4)GlcNAc(b1-3)Gal(b1-4)GlcNAc(b1-2)Man(a1-3)]Man(b1-4)GlcNAc(b1-4)[Fuc(a1-6)]GlcNAc
Procedure, shortened: as §1

[41] = biological target: GlcNAc(b1-3)Gal(b1-4)GlcNAc(b1-3)Gal(b1-4)GlcNAc(b1-3)Gal(b1-4)GlcNAc(b1-2)Man(a1-3)[GlcNAc(b1-3)Gal(b1-4)GlcNAc(b1-3)Gal(b1-4)GlcNAc(b1-3)Gal(b1-4)GlcNAc(b1-2)Man(a1-6)]Man(b1-4)GlcNAc(b1-4)GlcNAc
Procedure, shortened: as §1

[42] = biological target: GlcNAc(b1-3)Gal(b1-4)GlcNAc(b1-3)Gal(b1-4)GlcNAc(b1-3)Gal(b1-4)GlcNAc(b1-2)Man(a1-3)[GlcNAc(b1-3)Gal(b1-4)GlcNAc(b1-3)Gal(b1-4)GlcNAc(b1-3)Gal(b1-4)GlcNAc(b1-2)Man(a1-6)]Man(b1-4)GlcNAc(b1-4)[Fuc(a1-6)]GlcNAc
Procedure, shortened: as §1

[43] = biological target: GlcNAc(b1-3)Gal(b1-4)GlcNAc(b1-3)Gal(b1-4)GlcNAc(b1-3)Gal(b1-4)GlcNAc(b1-2)[GlcNAc(b1-3)Gal(b1-4)GlcNAc(b1-3)Gal(b1-4)GlcNAc(b1-3)Gal(b1-4)GlcNAc(b1-6)]Man(a1-6)[GlcNAc(b1-3)Gal(b1-4)GlcNAc(b1-3)Gal(b1-4)GlcNAc(b1-3)Gal(b1-4)GlcNAc(b1-2)Man(a1-3)]Man(b1-4)GlcNAc(b1-4)[Fuc(a1-6)]GlcNAc
Procedure, shortened: as §1

[44] = biological target: GlcNAc(b1-3)Gal(b1-4)GlcNAc(b1-3)Gal(b1-4)GlcNAc(b1-3)Gal(b1-4)GlcNAc(b1-3)Gal(b1-4)GlcNAc(b1-2)Man(a1-3)[GlcNAc(b1-3)Gal(b1-4)GlcNAc(b1-3)Gal(b1-4)GlcNAc(b1-3)Gal(b1-4)GlcNAc(b1-3)Gal(b1-4)GlcNAc(b1-2)Man(a1-6)]Man(b1-4)GlcNAc(b1-4)GlcNAc
Procedure, shortened: as §1

[45] = biological target: GlcNAc(b1-3)Gal(b1-4)GlcNAc(b1-3)Gal(b1-4)GlcNAc(b1-3)Gal(b1-4)GlcNAc(b1-3)Gal(b1-4)GlcNAc(b1-2)Man(a1-3)[GlcNAc(b1-3)Gal(b1-4)GlcNAc(b1-3)Gal(b1-4)GlcNAc(b1-3)Gal(b1-4)GlcNAc(b1-3)Gal(b1-4)GlcNAc(b1-2)Man(a1-6)]Man(b1-4)GlcNAc(b1-4)[Fuc(a1-6)]GlcNAc
Procedure, shortened: as §1

B1: AT5G17240(42) (Arabidopsis thaliana), Q6NQJ8 (protein)
chain: MDLEHQTMETFLRWAAEIGISDSIDSSRFRDSCLGHSLSVSDFPDAGGRGLGAARELKKGELVLKVPRKALMTTESIIAKDLKLSDAVNLHNSLSSTQILSVCLLYEMSKEKKSFWYPYLFHIPRDYDLLATFGNFEKQALQVEDAVWATEKATAKCQSEWKEAGSLMKELELKPKFRSFQAWLWASATISSRTLHVPWDSAGCLCPVGDLFNYDAPGDYSNTPQGPESANNVEEAGLVVETHSERLTDGGFEEDVNAYCLYARRNYQLGEQVLLCYGTYTNLELLEHYGFMLEENSNDKVFIPLETSLFSLASSWPKDSLYIHQDGKLSFALISTLRLWLIPQSQRDKSVMRLVYAGSQISVKNEILVMKWMSEKCGSVLRDLPTSVTEDTVLLHNIDKLQDPELRLEQKETEAFGSEVRAFLDANCLWDVTVLSGKPIEFSRKTSRMLSKWRWSVQWRLSYKRTLADCISYCNEKMNNLLGTQDRLRDL
[1]
  glycan array binding signal (z-score): 0.413
[2]
  glycan array binding signal (z-score): 0.067
[3]
  glycan array binding signal (z-score): -0.785
[4]
  glycan array binding signal (z-score): -0.562
[5]
  glycan array binding signal (z-score): -0.334
[6]
  glycan array binding signal (z-score): 0.218
[7]
  glycan array binding signal (z-score): -0.539
[8]
  glycan array binding signal (z-score): -0.754
[9]
  glycan array binding signal (z-score): -0.54
[10]
  glycan array binding signal (z-score): 0.52
[11]
  glycan array binding signal (z-score): -0.085
[12]
  glycan array binding signal (z-score): -0.607
[13]
  glycan array binding signal (z-score): 0.294
[14]
  glycan array binding signal (z-score): -0.401
[15]
  glycan array binding signal (z-score): 0.672
[16]
  glycan array binding signal (z-score): -0.755
[17]
  glycan array binding signal (z-score): -0.394
[18]
  glycan array binding signal (z-score): 0.264
[19]
  glycan array binding signal (z-score): -0.371
[20]
  glycan array binding signal (z-score): -0.853
[21]
  glycan array binding signal (z-score): -0.29
[22]
  glycan array binding signal (z-score): -0.671
[23]
  glycan array binding signal (z-score): -0.434
[24]
  glycan array binding signal (z-score): -0.118
[25]
  glycan array binding signal (z-score): -0.005
[26]
  glycan array binding signal (z-score): -0.299
[27]
  glycan array binding signal (z-score): 0.057
[28]
  glycan array binding signal (z-score): -0.567
[29]
  glycan array binding signal (z-score): -0.511
[30]
  glycan array binding signal (z-score): -0.21
[31]
  glycan array binding signal (z-score): -0.178
[32]
  glycan array binding signal (z-score): -0.232
[33]
  glycan array binding signal (z-score): 0.129
[34]
  glycan array binding signal (z-score): -0.343
[35]
  glycan array binding signal (z-score): -0.256
[36]
  glycan array binding signal (z-score): 2.56
[37]
  glycan array binding signal (z-score): -0.234
[38]
  glycan array binding signal (z-score): 0.442
[39]
  glycan array binding signal (z-score): -0.319
[40]
  glycan array binding signal (z-score): 1.12
[41]
  glycan array binding signal (z-score): 0.407
[42]
  glycan array binding signal (z-score): 0.113
[43]
  glycan array binding signal (z-score): 0.564
[44]
  glycan array binding signal (z-score): 0.094
[45]
  glycan array binding signal (z-score): 0.747
